Laboratory results published in patent US20060264603A1.
Positions count from the first letter of the chain named. No constants are given. Whether binding was seen depends on the method and setting. Some binding calls cover weakened binding; strength is not graded here. One block for each binder: values may come before it.

Protein sequences, listed by entry. Tags and fused reporters are not part of them. Residues count along the entry.
UniProt P03952, residues 20-638: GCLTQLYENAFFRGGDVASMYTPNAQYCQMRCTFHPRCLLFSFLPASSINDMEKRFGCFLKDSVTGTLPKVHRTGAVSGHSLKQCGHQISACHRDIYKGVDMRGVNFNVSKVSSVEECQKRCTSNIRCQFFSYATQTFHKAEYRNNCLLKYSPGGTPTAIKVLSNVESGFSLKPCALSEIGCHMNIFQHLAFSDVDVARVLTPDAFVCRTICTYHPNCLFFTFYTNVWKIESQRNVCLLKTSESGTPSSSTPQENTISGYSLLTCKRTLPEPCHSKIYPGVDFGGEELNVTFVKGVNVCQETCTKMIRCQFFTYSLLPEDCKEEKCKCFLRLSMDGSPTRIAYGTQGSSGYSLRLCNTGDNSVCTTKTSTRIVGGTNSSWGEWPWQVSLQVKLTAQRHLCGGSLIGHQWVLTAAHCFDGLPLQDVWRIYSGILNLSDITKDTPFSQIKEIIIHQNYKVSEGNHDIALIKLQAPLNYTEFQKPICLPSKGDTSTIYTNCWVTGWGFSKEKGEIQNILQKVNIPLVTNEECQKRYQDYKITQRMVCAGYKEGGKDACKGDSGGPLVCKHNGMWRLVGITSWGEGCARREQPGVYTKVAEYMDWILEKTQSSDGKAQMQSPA

Columns and labels:
[1] = molecular target: human plasma Kallikrein (Calbiochem, San Diego, Calif., # 420302) (human) (UniProt P03952); assay: phage display selection on human plasma kallikrein-agarose beads, two phases
[2] = molecular target: human plasma Kallikrein (Calbiochem, San Diego, Calif., # 420302) (human) (UniProt P03952); assay: phage display selection on kallikrein beads
[3] = molecular target: human plasma Kallikrein (Calbiochem, San Diego, Calif., # 420302) (human) (UniProt P03952); assay: phage display selection on kallikrein beads, first phase

binding [1]: binds
binding [2]: binds
B1: KKII/3#1 (designed binder)
chain: MHSFCAFKADDGHCKASLPRFFFNIFTRQCEEFIYGGCEGNQNRFESLEECKKMCTRD

binding [1]: binds
binding [2]: binds
B2: KKII/3#6 (designed binder)
chain: B1 chain with S17N, L18H, P19Q, I34S, E39G

binding [1]: binds
binding [2]: binds
B3: KKII/3#9 (designed binder)
chain: B1 chain with S17N, L18H, P19Q, I34S, E39G

binding [1]: binds
binding [2]: binds
B4: KKII/3#7 (designed binder)
chain: B1 chain with S17N, L18H, P19Q, I34S, E39G

binding [1]: binds
binding [2]: binds
B5: KKII/3#5 (designed binder)
chain: B1 chain with E39G

binding [3]: binds
binding [2]: binds
B6: KKI/3 (b) (designed binder)
chain: B1 chain with H13P, S17I, L18H, P19L

binding [1]: binds
binding [2]: binds
B7: KKII/3#2 (designed binder)
chain: B1 chain with H13P, S17N, L18H, P19L, I34S, E39G

binding [3]: binds
binding [2]: binds
B8: KKI/3 (a) (designed binder)
chain: B1 chain with H13R, A16G, S17A, L18H, P19L

binding [1]: binds
binding [2]: binds
B9: KKII/3#4 (designed binder)
chain: B1 chain with S17N, L18H, P19Q, E32Q, I34T, E39A

binding [1]: binds
binding [2]: binds
B10: KKII/3#10 (designed binder)
chain: B1 chain with A16G, S17A, L18H, P19L

binding [1]: binds
binding [2]: binds
B11: KKII/3#3 (designed binder)
chain: B1 chain with S17N, L18H, P19Q, I34T, E39G

binding [1]: binds
binding [2]: binds
B12: KKII/3#8 (designed binder)
chain: B1 chain with S17N, L18H, P19Q, I34S, E39G
